Results as given in the supplement of paper PMC10849652.
The other results are listed elsewhere or left out.

Sequences of proteins named here, by UniProt entry; tags and fusion partners are left off. A change or cut given only in a name is not applied to a line headed by its entry.
UniProt Q8WUX2: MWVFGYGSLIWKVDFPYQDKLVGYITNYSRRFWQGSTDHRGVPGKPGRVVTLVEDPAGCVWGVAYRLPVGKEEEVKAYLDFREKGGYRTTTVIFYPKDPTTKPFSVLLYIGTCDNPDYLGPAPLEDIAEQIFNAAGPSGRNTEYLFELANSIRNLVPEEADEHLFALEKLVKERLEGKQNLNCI
UniProt Q8TEP8: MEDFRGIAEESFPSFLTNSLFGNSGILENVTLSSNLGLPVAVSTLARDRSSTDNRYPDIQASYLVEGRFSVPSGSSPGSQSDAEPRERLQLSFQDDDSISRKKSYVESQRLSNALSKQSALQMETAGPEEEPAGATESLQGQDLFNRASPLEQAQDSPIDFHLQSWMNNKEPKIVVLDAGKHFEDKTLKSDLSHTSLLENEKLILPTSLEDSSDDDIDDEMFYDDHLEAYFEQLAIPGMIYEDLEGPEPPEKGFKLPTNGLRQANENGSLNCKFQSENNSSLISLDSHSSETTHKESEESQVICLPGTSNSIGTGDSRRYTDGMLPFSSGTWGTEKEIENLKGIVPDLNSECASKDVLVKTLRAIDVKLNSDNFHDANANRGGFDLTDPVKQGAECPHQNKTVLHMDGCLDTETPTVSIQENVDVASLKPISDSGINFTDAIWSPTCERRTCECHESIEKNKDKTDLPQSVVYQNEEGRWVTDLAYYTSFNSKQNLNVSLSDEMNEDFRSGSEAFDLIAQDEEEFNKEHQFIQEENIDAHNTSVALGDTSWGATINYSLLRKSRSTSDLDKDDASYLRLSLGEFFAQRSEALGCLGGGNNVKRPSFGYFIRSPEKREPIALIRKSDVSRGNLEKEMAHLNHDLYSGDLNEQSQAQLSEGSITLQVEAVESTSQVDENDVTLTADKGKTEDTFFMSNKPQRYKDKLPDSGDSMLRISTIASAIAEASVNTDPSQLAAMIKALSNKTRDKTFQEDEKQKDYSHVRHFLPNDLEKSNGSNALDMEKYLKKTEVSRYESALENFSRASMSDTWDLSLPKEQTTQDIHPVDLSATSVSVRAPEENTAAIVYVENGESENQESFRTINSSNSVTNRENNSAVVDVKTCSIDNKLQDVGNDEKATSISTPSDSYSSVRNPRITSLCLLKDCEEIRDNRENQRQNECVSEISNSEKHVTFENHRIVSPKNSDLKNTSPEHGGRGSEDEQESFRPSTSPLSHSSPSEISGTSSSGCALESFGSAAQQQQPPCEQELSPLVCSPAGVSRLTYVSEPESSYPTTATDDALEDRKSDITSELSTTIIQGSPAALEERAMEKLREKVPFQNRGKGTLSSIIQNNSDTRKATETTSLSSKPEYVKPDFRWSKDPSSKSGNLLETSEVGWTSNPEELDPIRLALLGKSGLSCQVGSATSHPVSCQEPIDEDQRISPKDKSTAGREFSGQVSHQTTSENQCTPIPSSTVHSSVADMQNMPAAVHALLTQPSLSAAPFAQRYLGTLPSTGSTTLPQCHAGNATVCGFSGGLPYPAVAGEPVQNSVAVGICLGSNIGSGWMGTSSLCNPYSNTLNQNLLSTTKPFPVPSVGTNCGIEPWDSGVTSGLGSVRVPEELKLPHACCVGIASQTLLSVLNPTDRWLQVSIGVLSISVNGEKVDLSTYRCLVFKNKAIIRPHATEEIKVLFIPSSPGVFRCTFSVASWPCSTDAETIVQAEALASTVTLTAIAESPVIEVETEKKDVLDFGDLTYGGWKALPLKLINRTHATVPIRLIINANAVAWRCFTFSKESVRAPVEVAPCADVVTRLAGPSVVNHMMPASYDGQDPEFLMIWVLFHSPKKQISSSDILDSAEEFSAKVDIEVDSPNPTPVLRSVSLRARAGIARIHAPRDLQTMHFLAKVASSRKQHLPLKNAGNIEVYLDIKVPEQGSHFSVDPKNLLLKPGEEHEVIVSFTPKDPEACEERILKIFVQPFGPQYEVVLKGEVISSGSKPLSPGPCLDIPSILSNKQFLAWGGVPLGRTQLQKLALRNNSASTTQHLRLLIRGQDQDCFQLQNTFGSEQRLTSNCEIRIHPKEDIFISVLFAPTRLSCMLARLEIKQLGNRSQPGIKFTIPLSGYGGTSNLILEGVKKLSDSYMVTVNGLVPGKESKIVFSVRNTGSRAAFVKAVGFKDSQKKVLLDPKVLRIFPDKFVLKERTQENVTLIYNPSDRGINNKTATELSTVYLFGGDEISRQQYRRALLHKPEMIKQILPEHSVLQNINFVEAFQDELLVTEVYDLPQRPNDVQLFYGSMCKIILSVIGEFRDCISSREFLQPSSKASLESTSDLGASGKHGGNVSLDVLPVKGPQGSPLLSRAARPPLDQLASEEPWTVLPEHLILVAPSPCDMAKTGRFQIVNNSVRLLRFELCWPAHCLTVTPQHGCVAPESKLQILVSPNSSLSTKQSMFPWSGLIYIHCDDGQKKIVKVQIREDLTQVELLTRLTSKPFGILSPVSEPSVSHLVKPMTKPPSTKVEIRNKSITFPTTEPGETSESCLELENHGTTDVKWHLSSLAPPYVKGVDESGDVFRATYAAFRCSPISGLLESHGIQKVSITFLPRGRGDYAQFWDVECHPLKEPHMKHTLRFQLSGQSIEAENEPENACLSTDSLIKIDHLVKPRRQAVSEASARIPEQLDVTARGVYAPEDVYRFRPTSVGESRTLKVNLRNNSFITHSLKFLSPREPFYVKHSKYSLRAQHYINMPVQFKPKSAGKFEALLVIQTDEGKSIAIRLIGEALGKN
UniProt O14735: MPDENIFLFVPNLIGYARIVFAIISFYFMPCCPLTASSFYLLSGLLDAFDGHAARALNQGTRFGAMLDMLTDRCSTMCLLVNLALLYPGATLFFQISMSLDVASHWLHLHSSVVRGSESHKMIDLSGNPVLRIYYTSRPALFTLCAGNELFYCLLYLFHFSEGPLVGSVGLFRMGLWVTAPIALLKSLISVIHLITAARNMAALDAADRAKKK
UniProt O43633: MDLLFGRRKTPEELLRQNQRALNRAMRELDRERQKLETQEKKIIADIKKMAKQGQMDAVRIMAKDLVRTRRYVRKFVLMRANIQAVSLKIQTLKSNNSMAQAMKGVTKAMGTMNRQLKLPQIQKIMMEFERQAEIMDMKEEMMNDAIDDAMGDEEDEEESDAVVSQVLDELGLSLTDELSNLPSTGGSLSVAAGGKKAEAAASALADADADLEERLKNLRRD
UniProt Q5VV42: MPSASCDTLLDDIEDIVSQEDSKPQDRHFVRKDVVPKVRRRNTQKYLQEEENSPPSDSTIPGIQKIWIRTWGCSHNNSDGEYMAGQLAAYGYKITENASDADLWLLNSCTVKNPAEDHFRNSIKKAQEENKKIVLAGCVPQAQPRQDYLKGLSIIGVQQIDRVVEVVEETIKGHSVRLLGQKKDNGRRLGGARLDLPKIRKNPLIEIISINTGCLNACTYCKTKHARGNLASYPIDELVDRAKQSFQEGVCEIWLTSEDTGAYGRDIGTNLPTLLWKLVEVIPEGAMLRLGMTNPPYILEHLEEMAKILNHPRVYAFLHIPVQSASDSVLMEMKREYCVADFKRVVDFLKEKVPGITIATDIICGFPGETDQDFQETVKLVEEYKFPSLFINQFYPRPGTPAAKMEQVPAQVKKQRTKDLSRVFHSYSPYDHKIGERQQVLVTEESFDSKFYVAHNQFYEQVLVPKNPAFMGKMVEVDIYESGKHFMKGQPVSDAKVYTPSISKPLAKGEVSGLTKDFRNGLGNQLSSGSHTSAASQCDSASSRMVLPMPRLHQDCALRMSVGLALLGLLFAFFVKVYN
UniProt O95319: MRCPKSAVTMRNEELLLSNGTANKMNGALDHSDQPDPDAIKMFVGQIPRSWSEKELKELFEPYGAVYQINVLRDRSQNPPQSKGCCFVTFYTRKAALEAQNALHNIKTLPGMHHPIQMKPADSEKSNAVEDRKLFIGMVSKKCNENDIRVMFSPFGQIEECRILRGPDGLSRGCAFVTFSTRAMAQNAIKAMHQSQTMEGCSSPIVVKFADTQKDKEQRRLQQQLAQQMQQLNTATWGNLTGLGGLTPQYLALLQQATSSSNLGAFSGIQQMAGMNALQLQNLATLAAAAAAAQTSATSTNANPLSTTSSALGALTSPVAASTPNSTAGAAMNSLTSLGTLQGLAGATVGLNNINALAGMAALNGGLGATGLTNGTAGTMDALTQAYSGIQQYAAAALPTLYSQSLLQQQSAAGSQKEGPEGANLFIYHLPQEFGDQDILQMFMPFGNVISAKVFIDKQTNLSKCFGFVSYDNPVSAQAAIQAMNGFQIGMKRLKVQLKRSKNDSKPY
UniProt P57076: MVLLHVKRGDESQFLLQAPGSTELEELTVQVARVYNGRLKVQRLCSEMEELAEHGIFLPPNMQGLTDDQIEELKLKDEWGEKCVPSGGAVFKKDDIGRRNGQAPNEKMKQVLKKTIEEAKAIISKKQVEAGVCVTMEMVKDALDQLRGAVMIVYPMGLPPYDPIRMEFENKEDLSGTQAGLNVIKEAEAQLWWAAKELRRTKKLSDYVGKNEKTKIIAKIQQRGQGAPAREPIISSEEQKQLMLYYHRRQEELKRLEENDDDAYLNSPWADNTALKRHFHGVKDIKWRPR
UniProt P50750, whole entry, looked up: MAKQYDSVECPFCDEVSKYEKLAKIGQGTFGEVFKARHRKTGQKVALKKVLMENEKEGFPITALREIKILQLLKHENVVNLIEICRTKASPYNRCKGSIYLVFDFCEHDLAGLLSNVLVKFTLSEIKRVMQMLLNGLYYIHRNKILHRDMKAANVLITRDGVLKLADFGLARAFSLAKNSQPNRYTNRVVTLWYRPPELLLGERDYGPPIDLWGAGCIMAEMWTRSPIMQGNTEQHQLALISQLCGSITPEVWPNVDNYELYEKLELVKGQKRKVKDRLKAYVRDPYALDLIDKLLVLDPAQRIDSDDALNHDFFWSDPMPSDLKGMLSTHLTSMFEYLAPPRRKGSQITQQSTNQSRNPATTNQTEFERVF
UniProt Q9Y281, whole entry, looked up: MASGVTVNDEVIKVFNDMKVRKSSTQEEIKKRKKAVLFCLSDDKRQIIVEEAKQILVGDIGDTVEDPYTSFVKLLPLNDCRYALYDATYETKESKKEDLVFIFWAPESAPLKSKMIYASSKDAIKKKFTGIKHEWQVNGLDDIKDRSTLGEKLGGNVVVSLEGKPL
UniProt Q9UPN4: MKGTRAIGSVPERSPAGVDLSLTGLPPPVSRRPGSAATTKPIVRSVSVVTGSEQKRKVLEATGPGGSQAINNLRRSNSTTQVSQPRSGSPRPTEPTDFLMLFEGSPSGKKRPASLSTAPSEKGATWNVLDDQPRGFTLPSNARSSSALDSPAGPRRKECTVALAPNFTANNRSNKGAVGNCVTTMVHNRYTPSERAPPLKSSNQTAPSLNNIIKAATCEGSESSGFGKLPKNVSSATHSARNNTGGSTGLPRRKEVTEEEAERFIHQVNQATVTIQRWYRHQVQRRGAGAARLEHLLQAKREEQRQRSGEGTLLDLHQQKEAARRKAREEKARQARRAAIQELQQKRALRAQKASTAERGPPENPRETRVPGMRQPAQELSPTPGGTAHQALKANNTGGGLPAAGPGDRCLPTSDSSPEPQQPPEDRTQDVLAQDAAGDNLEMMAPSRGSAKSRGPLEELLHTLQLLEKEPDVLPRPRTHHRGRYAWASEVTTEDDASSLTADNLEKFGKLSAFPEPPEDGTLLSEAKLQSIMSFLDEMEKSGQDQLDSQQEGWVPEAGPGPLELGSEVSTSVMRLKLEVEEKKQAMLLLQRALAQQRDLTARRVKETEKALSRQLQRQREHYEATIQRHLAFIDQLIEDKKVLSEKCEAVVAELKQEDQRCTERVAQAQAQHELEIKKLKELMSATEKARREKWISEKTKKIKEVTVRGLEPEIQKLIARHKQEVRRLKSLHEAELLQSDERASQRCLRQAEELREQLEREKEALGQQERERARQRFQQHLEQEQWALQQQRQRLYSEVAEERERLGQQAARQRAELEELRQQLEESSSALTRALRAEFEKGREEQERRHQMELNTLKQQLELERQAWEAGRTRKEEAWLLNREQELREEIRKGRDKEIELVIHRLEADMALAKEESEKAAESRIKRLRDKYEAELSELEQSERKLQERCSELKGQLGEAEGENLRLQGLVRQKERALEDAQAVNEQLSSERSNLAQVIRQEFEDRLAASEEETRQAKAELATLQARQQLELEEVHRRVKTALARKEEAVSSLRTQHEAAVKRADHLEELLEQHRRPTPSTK
UniProt Q6IPU0: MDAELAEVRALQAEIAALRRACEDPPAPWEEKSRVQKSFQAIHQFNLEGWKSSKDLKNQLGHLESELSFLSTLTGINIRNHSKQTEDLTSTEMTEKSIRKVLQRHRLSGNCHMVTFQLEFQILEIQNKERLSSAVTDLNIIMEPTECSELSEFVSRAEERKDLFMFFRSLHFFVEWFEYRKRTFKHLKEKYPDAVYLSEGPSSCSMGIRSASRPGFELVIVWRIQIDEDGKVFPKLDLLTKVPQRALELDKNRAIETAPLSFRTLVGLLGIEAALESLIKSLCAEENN

Columns and labels:
Experiment in all cases: log2 fold change, soluble protein after heating vs DMSO (PISA); higher = thermal stabilisation; K562 cells, 10 uM, 30 min; active = over 0.2 and 3.5 SD of the protein, either way, in both replicates (recomputed)
[1] = compound: COC1=CC=C(C=C1)CN2C=CC3=C2C=C(C=C3)C(=O)NO
Procedure, shortened: (§1)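 K562 cells at 2×10^6 cells/mL were treated for 30 min with 10 μM compound, and aliquots were heated for 3 min over 48°C-58°C before pooling. Extraction used PBS with 0.5% NP-40 at 4°C, and soluble protein was the supernatant after 21,000xg for 90 min, measured by TMTpro 16plex LC-MS/MS with channel sums equalised. Thermal stability values, relative to control samples and from duplicates, are log2 fold changes.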

[2] = compound: CON(C)C(=O)N1N=C(c2cc(F)ccc2F)S[C@@]1(CCCN)c1ccccc1 [filanesib]
Procedure, shortened: as §1

[3] = compound: CO[C@H]1C[C@@H]2CC[C@@H](C)[C@@](O)(O2)C(=O)C(=O)N2CCCC[C@H]2C(=O)O[C@H]([C@H](C)C[C@@H]2CC[C@H](n3cnnn3)[C@H](OC)C2)CC(=O)[C@H](C)/C=C(\C)[C@@H](O)[C@@H](OC)C(=O)[C@H](C)C[C@H](C)/C=C/C=C/C=C/1C [zotarolimus]
Procedure, shortened: as §1

[4] = compound: COc1cc(C(=O)O)ccc1NC(=O)[C@@H]1N[C@@H](CC(C)(C)C)[C@](C#N)(c2ccc(Cl)cc2F)[C@H]1c1cccc(Cl)c1F [idasanutlin]
Procedure, shortened: as §1

[5] = compound: COc1cc(Nc2ncc3c(n2)-c2ccc(Cl)cc2C(c2c(F)cccc2OC)=NC3)ccc1C(=O)O [alisertib]
Procedure, shortened: as §1

[6] = compound: COc1cc2nc(-c3cc(F)ccc3O)nc(N[C@@H]3CNC[C@H]3C(C)(C)O)c2cc1OC
Procedure, shortened: as §1

[7] = compound: COc1cc2ncnc(Nc3ccc(F)c(Cl)c3)c2cc1OCCCN1CCOCC1 [gefitinib]
Procedure, shortened: as §1

[8] = compound: COc1cccc2cc(-c3nc([C@H]4CC[C@H](C(=O)O)CC4)n4ncnc(N)c34)[nH]c12
Procedure, shortened: as §1

[9] = compound: CS(=O)(=O)CCNCc1ccc(-c2ccc3ncnc(Nc4ccc(OCc5cccc(F)c5)c(Cl)c4)c3c2)o1 [lapatinib]
Procedure, shortened: as §1

[10] = compound: CS(=O)(=O)N1CCN(Cc2cc3nc(-c4cccc5[nH]ncc45)nc(N4CCOCC4)c3s2)CC1 [pictilisib]
Procedure, shortened: as §1

Measured: log2 fold change

CHEK1 (UniProt O14757)
inactive: [1] 0.005 | [2] -0.025 | [3] -0.029 | [4] -0.041 | [5] -0.041 | [7] -0.06 | [8] 0.055 | [9] -0.007 | [10] 0.016
active: [6] -0.805

CHAC2 (UniProt Q8WUX2)
inactive: [1] -0.007 | [2] -0.032 | [3] 0.066 | [4] -0.019 | [5] 0.026 | [6] -0.061 | [7] -0.03 | [8] 0.06 | [9] 0.029 | [10] 0.077

CEP170 (UniProt Q5SW79)
inactive: [1] -0.018 | [2] 0.199 | [3] 0.026 | [4] 0.148 | [5] -0.051 | [6] -0.181 | [7] 0.005 | [8] -0.049 | [9] 0.13 | [10] 0.091

CELF1 isoform 4 (UniProt Q92879)
inactive: [1] 0.122 | [2] 0.002 | [3] 0.059 | [4] 0.095 | [5] 0.048 | [6] -0.014 | [7] -0.018 | [8] 0.068 | [9] 0.008 | [10] -0.067

CEP192 (UniProt Q8TEP8)
inactive: [1] -0.281 | [2] 0.124 | [3] -0.119 | [4] -0.007 | [5] 0.366 | [6] 0.068 | [7] 0 | [8] 0.089 | [9] -0.073 | [10] 0.104

CHCHD3 (UniProt Q9NX63)
inactive: [1] 0.021 | [2] -0.095 | [3] -0.019 | [4] -0.046 | [5] -0.051 | [6] -0.047 | [7] 0.009 | [8] 0.01 | [9] -0.084 | [10] 0.02

CDIPT (UniProt O14735)
inactive: [1] -0.045 | [2] 0.01 | [3] 0.039 | [4] -0.052 | [5] -0.155 | [6] -0.129 | [7] 0.006 | [8] 0.068 | [9] -0.096 | [10] 0.077

CHMP2A (UniProt O43633)
inactive: [1] 0.03 | [2] -0.042 | [3] 0.014 | [4] -0.042 | [5] -0.07 | [6] -0.057 | [7] -0.002 | [8] 0.04 | [9] -0.022 | [10] 0.001

CDC42BPB (UniProt Q9Y5S2)
inactive: [1] -0.062 | [2] 0.147 | [3] 0.089 | [4] 0.062 | [5] -0.1 | [6] -0.371 | [7] -0.07 | [8] 0.071 | [9] -0.009 | [10] 0.025

CDKAL1 (UniProt Q5VV42)
inactive: [1] -0.147 | [2] 0 | [3] -0.048 | [4] -0.084 | [5] -0.01 | [6] 0.012 | [7] -0.016 | [8] -0.013 | [9] 0.004 | [10] 0.041

CELF2 isoform 3 (UniProt O95319)
inactive: [1] 0.115 | [2] 0.052 | [3] -0.035 | [4] -0.044 | [5] -0.122 | [6] 0.1 | [7] -0.027 | [8] -0.006 | [9] 0.032 | [10] 0.051

CFAP298 (UniProt P57076)
inactive: [1] 0.011 | [2] 0.185 | [3] 0.105 | [4] 0.268 | [5] -0.053 | [6] -0.097 | [7] 0.028 | [8] -0.249 | [9] 0.069 | [10] 0.098

CHERP (UniProt Q8IWX8)
inactive: [1] 0.04 | [2] 0.266 | [3] 0.051 | [4] 0.063 | [5] 0.002 | [6] -0.227 | [7] -0.02 | [8] 0.002 | [9] -0.023 | [10] 0.038

CDK9 isoform 2 (UniProt P50750)
inactive: [1] -0.103 | [2] 0.154 | [3] 0.015 | [4] 0.114 | [5] -0.093 | [6] -0.182 | [7] -0.031 | [8] -0.067 | [9] -0.055 | [10] 0.014

CDK2 (UniProt P24941)
inactive: [1] -0.043 | [2] -0.044 | [3] 0.003 | [4] -0.07 | [5] -0.002 | [6] 0.024 | [7] -0.019 | [8] 0.043 | [9] -0.029 | [10] -0.032

CFH (UniProt P08603)
inactive: [1] -0.039 | [2] 0.052 | [3] -0.022 | [4] 0.111 | [5] -0.145 | [6] 0.025 | [7] 0.301 | [8] -0.073 | [9] 0.038 | [10] 0.044

CHD6 (UniProt Q8TD26)
inactive: [1] -0.666 | [2] 0.149 | [3] -0.078 | [4] -0.641 | [5] 0.196 | [6] -0.011 | [7] 0.095 | [8] 0.2 | [9] 0.071 | [10] -0.232

CEP97 isoform 2 (UniProt Q8IW35)
inactive: [1] -0.12 | [2] 0.094 | [3] -0.009 | [4] -0.022 | [6] 0.097 | [7] 0.092 | [9] -0.111

CENPE (UniProt Q02224)
inactive: [1] -0.355 | [2] 0.445 | [3] 0.288 | [4] -0.407 | [6] -0.068 | [9] 0.024 | [10] 0.048

CDC5L (UniProt Q99459)
inactive: [1] 0.067 | [2] 0.007 | [3] 0.184 | [4] 0.419 | [5] 0.017 | [8] -0.08 | [10] -0.295

CFL2 (UniProt Q9Y281)
inactive: [1] -0.105 | [2] -0.022 | [3] 0.044 | [4] -0.028 | [5] 0.006 | [6] 0.109 | [7] -0.011 | [8] 0.042 | [9] -0.019 | [10] -0.053

CEP131 (UniProt Q9UPN4)
inactive: [1] 0.003 | [2] 0.343 | [3] 0.072 | [4] 0.146 | [5] -0.358 | [6] -0.085 | [8] -0.167 | [9] -0.064 | [10] -0.011

CENPP (UniProt Q6IPU0)
inactive: [1] -0.087 | [3] -0.021 | [5] -0.106 | [6] 0.031 | [7] 0.021 | [8] 0.302 | [9] -0.004 | [10] -0.041

CEP152 (UniProt O94986)
inactive: [1] 0.402 | [2] 0.334 | [5] 0.021 | [6] 0.196 | [7] 0 | [8] -0.028 | [9] -0.103 | [10] 0.036
